The experiment deals with TET2 (5mC hydroxylase) (human (endogenous in THP-1 and moDC)) (UniProt Q6N021). The experiment in a line: co-IP; anti-TET2 (MABE462) covalently coupled to Dynabeads M-270 Epoxy; lysates of THP-1 or moDC 3 h after electroporation with mRNA for 3×FLAG-EGR2 or 3×FLAG-NAB2; 20 mM Tris-HCl pH 7.5, 150 mM NaCl, 1% Triton X-100, 2 mM EDTA; 2.5 h at room temperature; blot with anti-FLAG M2; anti-IgG beads as control.

No constants are given. Whether binding was seen depends on the method and setting. In cells and extracts the contact can be indirect. Some results given as binding are weak or reduced against the parent protein; the word gives no strength. Where a sequence is shown, tags or fusion partners need not be part of it.

Turning to “3×FLAG-EGR2 (early growth response 2, FLAG-tagged, wild-type) (from UniProt P11161 1-476)”, the binding entry is “binds”.

B1: 3×FLAG-NAB2 (FLAG-tagged, wild-type) (protein, UniProt Q15742 1-525)
chain: MHRAPSPTAEQPPGGGDSARRTLQPRLKPSARAMALPRTLGELQLYRVLQRANLLSYYETFIQQGGDDVQQLCEAGEEEFLEIMALVGMATKPLHVRRLQKALREWATNPGLFSQPVPAVPVSSIPLFKISETAGTRKGSMSNGHGSPGEKAGSARSFSPKSPLELGEKLSPLPGGPGAGDPRIWPGRSTPESDVGAGGEEEAGSPPFSPPAGGGVPEGTGAGGLAAGGTGGGPDRLEPEMVRMVVESVERIFRSFPRGDAGEVTSLLKLNKKLARSVGHIFEMDDNDSQKEEEIRKYSIIYGRFDSKRREGKQLSLHELTINEAAAQFCMRDNTLLLRRVELFSLSRQVARESTYLSSLKGSRLHPEELGGPPLKKLKQEVGEQSHPEIQQPPPGPESYVPPYRPSLEEDSASLSGESLDGHLQAVGSCPRLTPPPADLPLALPAHGLWSRHILQQTLMDEGLRLARLVSHDRVGRLSPCVPAKPPLAEFEEGLLDRCPAPGPHPALVEGRRSSVKVEAEASRQ
With B1, the binding entry was “binds”.
